In PubChem BioAssay AID1347076 (National Center for Advancing Translational Sciences (NCATS), 2019):
Screen size: about 400,000 compounds; about 13,000 (3.2%) were called active. The shares of active, inactive and inconclusive entries below differ from those in the screen. The call rests on the fitted dose curve; in most records, active means well fitted cell-killing curve with a large enough effect; inconclusive means small, poorly fitted or top-dose-only effect, or effect the other way; inactive means flat fitted curve, though single readings scatter. Potencies of inconclusive entries are doubtful fits and often do not repeat.

Assay: qHTS assay for MDR1-selective chemotherapeutics: Primary screen using the drug-selected MDR subline cells KB-V1; further: nearly all actives have a fitted effect of over 60% in size
Settings: KB-V1 MDR cells viability, CellTiter-Glo, 72 h; activity change, negative = cytotoxicity: at 46.1 µM (top of the series)
Outline: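 Potencies derive from concentration-effect curves fitted to normalized luminescence (CellTiter-Glo) of KB-V1 cells treated for 72 h at 37 degrees C in phenol-red-free DMEM containing 10% FBS.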
On the % scale 0 is the no-effect control and ±100 the full control effect; potency means the concentration at half of the fitted maximal effect.

Compound | Potency | activity change, negative = cytotoxicity
CCN(c1ccccc1)S(=O)(=O)c1ccc(Oc2ccc([N+](=O)[O-])cc2)nc1 | inconclusive: 18.4 µM [cytotoxic, partial curve] | 
CCn1c(=O)cc(OCC(=O)Nc2ccc3c(c2)OCCO3)c2ccccc21 | inconclusive: 11.6 µM [cytotoxic, partial curve, poor fit] | 
O=C(Nc1nc(-c2ccccn2)cs1)c1ccc(F)c(S(=O)(=O)N2CCOCC2)c1 | inconclusive: 32.6 µM [cytotoxic, partial curve, poor fit] | 
COC(=O)/C(=C\Nc1ccc(Oc2ccc(F)cc2F)nc1)NC(=O)c1ccccc1 | inconclusive: 29.1 µM [rising, single point] | 
COC(=O)[C@@]12C[C@@H](CC(=O)N3CCCC3)C(=O)N(Cc3ccccc3)C1=CCC(C)(C)C2 | inconclusive: 1.84 µM [cytotoxic, full curve] | 
CCN(CC(=O)NCc1ccc(Cl)cc1)C(=O)c1cc(OC)cc(OC)c1 | inconclusive: 18.4 µM [cytotoxic, single point] | 
CCOc1ccccc1/C=C(\C#N)C(=O)NC1CC1 | inconclusive: 16.4 µM [cytotoxic, partial curve, poor fit] | 
CCOP(=O)(OCC)C(NC(=O)Nc1ccc(Cl)c(Cl)c1)C(N)=O (configuration not stated) | inconclusive: 20.6 µM [rising, partial curve, poor fit] | 
CCCCCCCn1c(=N)n(CC(=O)c2ccco2)c2ccccc21 | inconclusive: 29.1 µM [cytotoxic, partial curve, poor fit] | 
CC(=O)NCc1nnc2c3ccccc3c(-c3ccccc3)nn12 |  | inactive: 1.76%
COc1cccc(C(=O)NCCS(=O)(=O)NCCc2ccccc2)c1 | inconclusive: 23.1 µM [cytotoxic, partial curve] | 
Cc1ccccc1Cc1c(C)nc2c(-c3ccccc3)c(C)[nH]n2c1=O | inconclusive: 29.1 µM [cytotoxic, single point] | 
CCN(CC)CCNc1nc(-n2nc(C)cc2C)nc2sc3c(c12)CC(C)(C)OC3 | inconclusive: 16.4 µM [cytotoxic, partial curve] | 
COc1ccc(CCC(=O)Nc2ncc(C)s2)cc1OC |  | inactive: 22%
CC(OC(=O)c1ccc(S(C)(=O)=O)c([N+](=O)[O-])c1)C(=O)NC1C2CC3CC(C2)CC1C3 (configuration not stated) | inconclusive: 29.1 µM [cytotoxic, single point] | 
Cc1c(N)cc2c(c1N)C(C)(C)CC2(C)C |  | inactive: 4.42%
Cc1cccc(C)c1NC(=O)COC(=O)CSc1nnc(N)s1 |  | inconclusive: 33.3%
NC(c1cccc(F)c1)c1nc(-c2ccc(Cl)cc2)cs1 (configuration not stated) |  | inconclusive: -0.773%
Cc1sc(NC(=O)c2ccco2)c(CN2CCN(c3ccccn3)CC2)c1C | inconclusive: 9.2 µM [cytotoxic, partial curve, poor fit] | 
CCN(CCCNC(=O)CCCN1C(=O)COc2ccc(C)cc21)c1cccc(C)c1 | active: 11.6 µM | 
N#Cc1ccc(N2CCc3ccccc3C2)c([N+](=O)[O-])c1 | inconclusive: 1.16 µM [cytotoxic, full curve, poor fit] | 
CCOc1ccc(CNC(=O)CN2C(=O)CSc3ccc(S(=O)(=O)N4CCOCC4)cc32)cc1OC |  | inactive: 24.6%
CN1C2C=C(N(CCc3c[nH]c4ccccc34)C(=O)c3ccc(Cl)cc3)CC1CC2 (configuration not stated) | active: 23.1 µM | 

A different layout for part of the listing above:
Compound,Potency,"activity change, negative = cytotoxicity"
CC(=O)NCc1nnc2c3ccccc3c(-c3ccccc3)nn12,,inactive: 1.76%
COc1ccc(CCC(=O)Nc2ncc(C)s2)cc1OC,,inactive: 22%
CCOc1ccc(CNC(=O)CN2C(=O)CSc3ccc(S(=O)(=O)N4CCOCC4)cc32)cc1OC,,inactive: 24.6%

Continued:

Compound | Potency | activity change, negative = cytotoxicity
COc1cc(C(=O)O)cc(NC(=O)c2cccs2)c1OC | inconclusive: 29.1 µM [rising, single point] | 
CCC(=O)Nc1cc2[nH]c(=O)cc(C)c2cc1C |  | inactive: 14.7%
CCC1=Nc2cc(C(=O)NCCCOC(C)C)ccc2Sc2ccc(C)cc21 | inconclusive: 2.91 µM [cytotoxic, full curve, poor fit] | 
O=C1CC(C(=O)N2CCN(Cc3ccccc3)CC2)CN1Cc1ccccc1 (configuration not stated) |  | inactive: -21.3%
Cc1cc2oc(C(=O)N(Cc3ccc(N(C)C)cc3)CC3CCCO3)c(C)c2cc1C (configuration not stated) |  | inactive: -18.2%
O=C(CCCCn1c(=O)c2ccccc2n(Cc2ccccc2F)c1=O)NCc1ccc2c(c1)OCO2 |  | inactive: 0.381%
CCOC(=O)/C=C/C(=O)Nc1ccc(S(=O)(=O)N2CCc3ccccc32)cc1 | inconclusive: 29.1 µM [rising, single point] | 
COc1ccc(NC(=O)CCCN2C(=O)CN(C)C2=O)c(OC)c1 |  | inactive: -9.52%
COc1ccc(CCNC(=O)CNS(=O)(=O)c2ccc(Br)s2)cc1OC | inconclusive: 23.1 µM [cytotoxic, single point] | 
CCC(=O)N1CCc2cc(Br)cc(S(=O)(=O)N3CCCCC3CC)c21 (configuration not stated) | inconclusive: 7.31 µM [cytotoxic, partial curve] | 
CC(C)CCNC(=O)CN(C(=O)Cn1nnc(-c2ccc(F)cc2)n1)C1CCCC1 | active: 10.3 µM | 
Cc1ccc(-c2c(C(=O)N/N=C/c3ccc(C)o3)nnn2-c2nonc2N)cc1 | inconclusive: 20.6 µM [rising, single point] | 
COc1ccc(/C=C(\C#N)C(=O)c2c(C)[nH]c3ccccc23)cc1OC | inconclusive: 32.6 µM [rising, partial curve, poor fit] | 
O=C(CCc1ccccc1)NCC1(c2ccccc2)CCCC1 |  | inactive: -18.6%
CC(NC(=O)COC(=O)c1cc([N+](=O)[O-])ccc1N1CCOCC1)c1ccccc1 (configuration not stated) | inconclusive: 7.31 µM [cytotoxic, partial curve] | 
O=C(COc1ccccc1)NCC(c1ccco1)N1CCN(c2ccccc2)CC1 (configuration not stated) | inconclusive: 5.8 µM [cytotoxic, full curve, poor fit] | 
CCc1cccc(C)c1NC(=O)C(CC)Sc1nc2ccncc2[nH]1 (configuration not stated) |  | inactive: -23.1%
O=C(O)CSC1CC(=O)N(c2ccc(Cl)cc2)C1=O (configuration not stated) |  | inactive: 1.08%
CCn1c(CSc2nc3ccccc3s2)nnc1SCC(=O)c1ccc(O)c(O)c1 | inconclusive: 16.4 µM [cytotoxic, single point] | 
CCn1cc(Cl)c(C(=O)N2N=C3/C(=C/c4cccs4)CCCC3C2c2cccs2)n1 (configuration not stated) | active: 20.6 µM | 
COc1ccc(CCNC(=O)CC(Cc2ccc(C)cc2)C(=O)O)cc1OC (configuration not stated) |  | inactive: 2.73%
CCOC(=O)C1=C(N)n2c(s/c(=C\c3ccco3)c2=O)=C(C(=O)OCC)C1c1ccco1 (configuration not stated) | active: 4.61 µM | 
CC1=C(C(=O)OCc2ccccc2)C(c2ccc([N+](=O)[O-])cc2)NC(=O)N1C (configuration not stated) | inconclusive: 20.6 µM [cytotoxic, single point] | 

Compound | Potency | activity change, negative = cytotoxicity
O=C(NCc1cccc(C(F)(F)F)c1)C1CC(c2ccccc2C(F)(F)F)=NO1 (configuration not stated) | inconclusive: 14.6 µM [cytotoxic, partial curve, poor fit] | 
Cc1ccc(NC(=O)N2CCc3c(sc4c3CCCC4)C2c2ccccc2)cc1F (configuration not stated) |  | inactive: 17.9%
CCCCc1nn2c(=O)cc(COC(=O)c3ccc(NC(=O)c4cccc(OC)c4)cc3)nc2s1 | inconclusive: 29.1 µM [rising, single point] | 
Cc1ccc(NC(=O)COC(=O)C2CCN(c3ccc(C(F)(F)F)cn3)CC2)cc1 | inconclusive: 29.1 µM [rising, single point] | 
CCCN1CCN(CC2=C(C(=O)OCC)C(c3cccc(OC)c3OC)NC(=O)N2)CC1 (configuration not stated) |  | inactive: -3.07%
Cc1ccc(NCc2n[nH]c(=S)n2-c2cccc(Cl)c2)cc1 | inconclusive: 18.4 µM [cytotoxic, partial curve, poor fit] | 
CN(CCc1ccccc1)C(=O)c1ccc(NC(=O)Cc2cccc(NC(=O)C3CCN(C(=O)C4CCCCC4)CC3)c2)cc1 | inconclusive: 29.1 µM [rising, single point] | 
CN(C(=O)c1cccc(NC(=O)Cc2cccc(NC(=O)C3CCN(C(=O)c4ccccc4)CC3)c2)c1)C1CCCC1 | inconclusive: 20.6 µM [rising, partial curve, poor fit] | 
CC(=O)NC(CC(=O)N(Cc1ccccc1)c1cccc(C)c1)c1ccccc1 (configuration not stated) | inconclusive: 5.8 µM [cytotoxic, partial curve] | 
COc1ccc(Br)c(Cn2c(C)c(C(=O)NCc3ccc4c(c3)OCCO4)sc2=O)c1 | inconclusive: 9.2 µM [cytotoxic, partial curve] | 
COc1cc(/C=N/Nc2ncc(C(F)(F)F)cc2Cl)cc(OC)c1OC | inconclusive: 20.6 µM [cytotoxic, single point] | 
COc1ccccc1N(CC(O)CN(c1ccccc1)S(C)(=O)=O)S(=O)(=O)c1ccccc1 (configuration not stated) |  | inactive: 13.5%
CC(=O)c1cccc(OCc2cc(C(=O)NC3CCN(Cc4ccccc4)CC3)no2)c1 | inconclusive: 10.3 µM [cytotoxic, partial curve, poor fit] | 
Cc1cc(C)c2c(N)c(C(=O)Nc3ccccc3Cl)sc2n1 |  | inactive: -2.22%
CC(=O)c1cc2c(cc1NC(=O)CSc1nc3ccccc3o1)OCO2 |  | inactive: -5.24%
COc1ccc(NC(=S)Nc2cccc(Cl)c2)cc1OC |  | inactive: -4.84%
Cc1ccc(-c2cc(C(=O)Nc3c(C)n(C)n(-c4ccccc4)c3=O)c3ccccc3n2)cc1 | inconclusive: 20.6 µM [cytotoxic, partial curve] | 
CCCn1cc(S(=O)(=O)c2ccccc2)c(=O)c2cc(OC)c(OC)cc21 | inconclusive: 1.03 µM [rising, full curve] | 
CN(CC(=O)Nc1ccc(F)cc1)CC(=O)Nc1ccc(F)c(F)c1F | inconclusive: 11.6 µM [cytotoxic, partial curve] | 
COc1ccc(C(=O)OCC(=O)c2ccc(Br)s2)c(OC)c1 | inconclusive: 20.6 µM [cytotoxic, partial curve, poor fit] | 
CCn1c(=O)n(CC)c2cc(S(=O)(=O)Nc3ccccc3C)c(C)cc21 | inconclusive: 9.2 µM [cytotoxic, partial curve, poor fit] | 

At a glance, two of the compounds above:
Compound | Potency | activity change, negative = cytotoxicity
CCCn1cc(S(=O)(=O)c2ccccc2)c(=O)c2cc(OC)c(OC)cc21 | inconclusive: 1.03 µM [rising, full curve] | 
CN(CC(=O)Nc1ccc(F)cc1)CC(=O)Nc1ccc(F)c(F)c1F | inconclusive: 11.6 µM [cytotoxic, partial curve] | 
